# Measured values as given in the supplement of paper PMC10849652.
# Sequences of proteins named here, by UniProt entry; tags and fusion partners are left off. A change or cut given only in a name is not applied to a line headed by its entry.
# UniProt O75420: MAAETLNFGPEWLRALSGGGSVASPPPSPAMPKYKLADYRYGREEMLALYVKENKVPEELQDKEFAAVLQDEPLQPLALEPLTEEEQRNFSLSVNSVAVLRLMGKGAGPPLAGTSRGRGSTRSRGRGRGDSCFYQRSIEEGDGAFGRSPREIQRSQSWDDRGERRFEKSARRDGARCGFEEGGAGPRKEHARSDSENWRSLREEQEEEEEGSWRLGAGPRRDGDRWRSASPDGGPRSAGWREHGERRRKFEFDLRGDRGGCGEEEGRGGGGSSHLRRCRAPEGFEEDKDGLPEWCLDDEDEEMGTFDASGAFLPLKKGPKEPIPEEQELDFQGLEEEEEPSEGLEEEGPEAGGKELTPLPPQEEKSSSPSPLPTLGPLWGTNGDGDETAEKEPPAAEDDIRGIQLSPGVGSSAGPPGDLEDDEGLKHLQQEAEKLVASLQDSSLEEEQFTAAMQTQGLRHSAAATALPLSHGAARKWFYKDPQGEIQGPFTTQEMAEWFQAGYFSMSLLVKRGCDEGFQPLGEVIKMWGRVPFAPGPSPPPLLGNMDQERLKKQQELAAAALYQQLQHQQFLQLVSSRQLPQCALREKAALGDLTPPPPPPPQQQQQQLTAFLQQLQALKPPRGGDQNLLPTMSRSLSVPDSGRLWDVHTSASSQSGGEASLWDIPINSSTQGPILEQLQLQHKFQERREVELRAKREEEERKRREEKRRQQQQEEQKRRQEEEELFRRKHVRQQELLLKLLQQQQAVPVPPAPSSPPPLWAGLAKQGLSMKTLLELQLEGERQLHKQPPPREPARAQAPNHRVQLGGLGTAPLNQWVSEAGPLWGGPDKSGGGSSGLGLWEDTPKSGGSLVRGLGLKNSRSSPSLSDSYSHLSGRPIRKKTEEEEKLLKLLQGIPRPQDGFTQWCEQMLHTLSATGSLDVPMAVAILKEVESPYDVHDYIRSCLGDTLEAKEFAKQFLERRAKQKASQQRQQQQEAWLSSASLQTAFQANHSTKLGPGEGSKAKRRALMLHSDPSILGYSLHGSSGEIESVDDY
# UniProt Q8TD30: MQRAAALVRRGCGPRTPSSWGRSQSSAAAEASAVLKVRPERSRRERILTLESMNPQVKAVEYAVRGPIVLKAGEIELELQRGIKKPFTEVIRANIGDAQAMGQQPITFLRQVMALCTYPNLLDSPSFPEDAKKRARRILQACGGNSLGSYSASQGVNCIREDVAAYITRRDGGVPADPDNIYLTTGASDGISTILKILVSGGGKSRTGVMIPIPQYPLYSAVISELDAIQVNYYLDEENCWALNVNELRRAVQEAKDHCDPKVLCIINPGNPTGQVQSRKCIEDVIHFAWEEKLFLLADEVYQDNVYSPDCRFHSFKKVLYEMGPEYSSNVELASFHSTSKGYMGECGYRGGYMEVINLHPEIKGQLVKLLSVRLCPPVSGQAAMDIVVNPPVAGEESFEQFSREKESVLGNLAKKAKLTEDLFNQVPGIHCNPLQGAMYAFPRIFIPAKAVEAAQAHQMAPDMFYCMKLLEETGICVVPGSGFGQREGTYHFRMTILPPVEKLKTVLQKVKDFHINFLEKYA
# UniProt Q92805: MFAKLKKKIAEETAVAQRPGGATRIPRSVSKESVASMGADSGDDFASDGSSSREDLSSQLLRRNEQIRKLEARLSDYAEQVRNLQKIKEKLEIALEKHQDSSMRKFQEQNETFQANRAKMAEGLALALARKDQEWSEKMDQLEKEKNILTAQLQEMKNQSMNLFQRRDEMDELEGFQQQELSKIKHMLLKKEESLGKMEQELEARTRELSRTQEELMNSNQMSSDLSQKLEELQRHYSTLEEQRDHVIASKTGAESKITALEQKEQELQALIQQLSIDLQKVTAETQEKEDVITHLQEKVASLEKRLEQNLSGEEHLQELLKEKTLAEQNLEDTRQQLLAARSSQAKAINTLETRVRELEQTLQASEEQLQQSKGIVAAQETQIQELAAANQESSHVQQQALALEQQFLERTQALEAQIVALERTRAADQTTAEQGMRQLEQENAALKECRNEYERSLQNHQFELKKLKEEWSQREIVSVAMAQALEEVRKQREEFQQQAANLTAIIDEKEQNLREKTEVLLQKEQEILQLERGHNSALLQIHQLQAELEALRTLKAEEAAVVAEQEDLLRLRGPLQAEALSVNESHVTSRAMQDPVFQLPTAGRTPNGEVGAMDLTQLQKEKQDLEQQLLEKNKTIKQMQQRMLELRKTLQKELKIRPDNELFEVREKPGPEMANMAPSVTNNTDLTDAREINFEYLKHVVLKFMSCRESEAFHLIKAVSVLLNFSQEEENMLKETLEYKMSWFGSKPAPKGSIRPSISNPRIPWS
# UniProt Q14956: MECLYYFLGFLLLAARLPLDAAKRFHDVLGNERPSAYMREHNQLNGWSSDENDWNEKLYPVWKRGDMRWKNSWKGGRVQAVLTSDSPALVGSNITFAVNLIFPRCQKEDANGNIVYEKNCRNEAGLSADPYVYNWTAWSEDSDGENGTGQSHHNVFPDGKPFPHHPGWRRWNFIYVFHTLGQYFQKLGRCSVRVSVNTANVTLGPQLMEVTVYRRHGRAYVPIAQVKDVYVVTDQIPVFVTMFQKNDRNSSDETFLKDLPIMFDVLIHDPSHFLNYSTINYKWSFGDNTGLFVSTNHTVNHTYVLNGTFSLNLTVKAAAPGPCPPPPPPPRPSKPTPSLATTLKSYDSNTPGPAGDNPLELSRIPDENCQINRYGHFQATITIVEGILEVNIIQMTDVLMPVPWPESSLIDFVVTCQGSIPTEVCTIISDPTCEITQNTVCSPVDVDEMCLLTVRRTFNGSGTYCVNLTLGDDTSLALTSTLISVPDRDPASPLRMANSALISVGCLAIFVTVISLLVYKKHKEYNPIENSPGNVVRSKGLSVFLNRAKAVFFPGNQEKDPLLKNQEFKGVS
# UniProt Q14749: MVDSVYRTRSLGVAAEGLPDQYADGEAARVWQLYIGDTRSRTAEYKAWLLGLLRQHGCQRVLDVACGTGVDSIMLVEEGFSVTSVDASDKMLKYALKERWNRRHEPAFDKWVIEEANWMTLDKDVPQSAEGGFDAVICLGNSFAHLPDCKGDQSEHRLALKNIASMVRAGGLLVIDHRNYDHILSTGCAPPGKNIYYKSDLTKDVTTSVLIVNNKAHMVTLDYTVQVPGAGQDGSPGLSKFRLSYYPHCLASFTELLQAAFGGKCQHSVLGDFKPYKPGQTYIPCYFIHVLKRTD
# UniProt Q9NZD2: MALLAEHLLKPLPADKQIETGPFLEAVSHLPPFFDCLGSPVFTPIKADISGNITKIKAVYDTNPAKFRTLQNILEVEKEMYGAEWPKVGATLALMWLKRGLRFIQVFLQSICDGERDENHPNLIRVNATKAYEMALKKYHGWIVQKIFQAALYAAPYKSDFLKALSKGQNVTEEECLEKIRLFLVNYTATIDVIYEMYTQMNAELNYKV
# UniProt Q9H4A5: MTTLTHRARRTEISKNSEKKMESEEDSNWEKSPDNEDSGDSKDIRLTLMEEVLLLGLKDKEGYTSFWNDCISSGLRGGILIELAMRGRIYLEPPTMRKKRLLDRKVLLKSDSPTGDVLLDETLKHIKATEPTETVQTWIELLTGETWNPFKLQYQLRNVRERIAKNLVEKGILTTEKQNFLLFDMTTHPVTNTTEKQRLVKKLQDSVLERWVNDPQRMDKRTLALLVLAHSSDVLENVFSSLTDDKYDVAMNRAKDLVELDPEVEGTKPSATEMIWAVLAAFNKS
# UniProt Q86V85: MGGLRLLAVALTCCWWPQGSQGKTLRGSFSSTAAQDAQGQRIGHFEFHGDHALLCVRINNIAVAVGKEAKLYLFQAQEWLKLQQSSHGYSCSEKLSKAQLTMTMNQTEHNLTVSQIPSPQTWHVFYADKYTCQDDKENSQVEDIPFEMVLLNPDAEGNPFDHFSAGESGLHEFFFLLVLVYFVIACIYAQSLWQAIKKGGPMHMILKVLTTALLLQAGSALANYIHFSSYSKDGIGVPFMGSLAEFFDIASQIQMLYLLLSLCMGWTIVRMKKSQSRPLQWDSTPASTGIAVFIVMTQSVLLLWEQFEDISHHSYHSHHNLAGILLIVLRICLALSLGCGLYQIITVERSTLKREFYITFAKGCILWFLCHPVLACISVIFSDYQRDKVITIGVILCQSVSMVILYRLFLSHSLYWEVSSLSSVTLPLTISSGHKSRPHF
# UniProt O60443: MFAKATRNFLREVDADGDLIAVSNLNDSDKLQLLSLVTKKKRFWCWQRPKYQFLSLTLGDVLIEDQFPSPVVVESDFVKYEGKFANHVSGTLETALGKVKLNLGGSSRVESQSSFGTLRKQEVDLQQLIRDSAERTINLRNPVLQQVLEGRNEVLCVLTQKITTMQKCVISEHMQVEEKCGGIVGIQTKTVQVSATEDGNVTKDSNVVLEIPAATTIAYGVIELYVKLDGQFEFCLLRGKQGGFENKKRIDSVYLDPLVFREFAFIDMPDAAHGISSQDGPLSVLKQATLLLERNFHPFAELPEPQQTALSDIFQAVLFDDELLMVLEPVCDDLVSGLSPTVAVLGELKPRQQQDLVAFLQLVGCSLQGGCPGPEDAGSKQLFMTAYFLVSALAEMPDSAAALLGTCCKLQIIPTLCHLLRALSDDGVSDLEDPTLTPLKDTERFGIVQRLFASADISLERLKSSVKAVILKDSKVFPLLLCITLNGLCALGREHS
# UniProt Q14687: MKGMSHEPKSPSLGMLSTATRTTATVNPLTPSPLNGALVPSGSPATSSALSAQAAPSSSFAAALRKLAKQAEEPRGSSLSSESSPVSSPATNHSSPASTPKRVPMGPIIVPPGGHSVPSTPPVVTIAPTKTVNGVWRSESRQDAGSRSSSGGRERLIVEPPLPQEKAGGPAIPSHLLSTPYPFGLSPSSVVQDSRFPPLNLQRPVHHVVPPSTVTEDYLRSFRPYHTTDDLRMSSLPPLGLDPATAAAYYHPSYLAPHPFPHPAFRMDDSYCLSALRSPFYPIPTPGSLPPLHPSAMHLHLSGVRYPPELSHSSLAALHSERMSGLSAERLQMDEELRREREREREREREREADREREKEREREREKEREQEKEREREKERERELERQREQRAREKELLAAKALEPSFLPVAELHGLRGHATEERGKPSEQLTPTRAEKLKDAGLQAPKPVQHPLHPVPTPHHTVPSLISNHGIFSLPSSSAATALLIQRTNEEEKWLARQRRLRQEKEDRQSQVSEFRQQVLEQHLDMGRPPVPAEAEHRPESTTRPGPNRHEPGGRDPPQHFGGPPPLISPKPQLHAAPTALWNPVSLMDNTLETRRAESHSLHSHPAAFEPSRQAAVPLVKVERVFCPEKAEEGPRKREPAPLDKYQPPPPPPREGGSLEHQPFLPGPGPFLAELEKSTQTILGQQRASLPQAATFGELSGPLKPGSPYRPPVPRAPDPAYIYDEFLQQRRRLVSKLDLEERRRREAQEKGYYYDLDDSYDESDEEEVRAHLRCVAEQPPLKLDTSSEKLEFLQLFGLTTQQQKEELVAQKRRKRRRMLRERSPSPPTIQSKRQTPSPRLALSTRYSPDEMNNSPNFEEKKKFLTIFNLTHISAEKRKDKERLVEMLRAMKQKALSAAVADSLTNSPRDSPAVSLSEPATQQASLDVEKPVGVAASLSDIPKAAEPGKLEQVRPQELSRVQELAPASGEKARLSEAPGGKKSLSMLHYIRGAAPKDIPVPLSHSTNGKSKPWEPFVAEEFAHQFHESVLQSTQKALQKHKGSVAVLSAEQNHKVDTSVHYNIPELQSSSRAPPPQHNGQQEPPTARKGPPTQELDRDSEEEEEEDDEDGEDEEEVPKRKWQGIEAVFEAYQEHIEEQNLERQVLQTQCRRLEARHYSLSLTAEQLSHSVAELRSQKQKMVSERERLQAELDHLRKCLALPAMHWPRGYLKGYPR
# UniProt Q8WWB7: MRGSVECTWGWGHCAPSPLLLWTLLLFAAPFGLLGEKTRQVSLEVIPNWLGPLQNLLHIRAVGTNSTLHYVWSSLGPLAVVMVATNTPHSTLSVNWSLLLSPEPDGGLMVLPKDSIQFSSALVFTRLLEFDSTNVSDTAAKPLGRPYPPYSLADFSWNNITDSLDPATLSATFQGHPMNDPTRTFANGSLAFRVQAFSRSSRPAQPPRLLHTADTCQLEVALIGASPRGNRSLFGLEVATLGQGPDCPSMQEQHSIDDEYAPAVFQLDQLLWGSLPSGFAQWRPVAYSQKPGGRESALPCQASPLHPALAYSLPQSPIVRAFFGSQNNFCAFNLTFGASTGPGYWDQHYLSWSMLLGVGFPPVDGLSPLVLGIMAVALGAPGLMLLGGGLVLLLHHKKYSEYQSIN
# UniProt Q9NU53: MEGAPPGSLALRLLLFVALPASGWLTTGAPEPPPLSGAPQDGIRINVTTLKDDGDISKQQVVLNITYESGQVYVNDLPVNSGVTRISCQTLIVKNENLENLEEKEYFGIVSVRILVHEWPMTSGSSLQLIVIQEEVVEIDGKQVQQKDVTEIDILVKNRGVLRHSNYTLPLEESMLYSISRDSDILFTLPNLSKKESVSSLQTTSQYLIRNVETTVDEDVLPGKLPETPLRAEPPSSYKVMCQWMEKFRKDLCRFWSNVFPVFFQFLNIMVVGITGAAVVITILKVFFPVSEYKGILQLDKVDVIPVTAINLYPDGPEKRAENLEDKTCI
# This is one part of the list. Residues, ends and D or L forms follow the SMILES beside them. *: point of attachment. Cbz = O=C(OCc1ccccc1)*
# Tests used:
# Experiment in all cases: log2 fold change, soluble protein after heating vs DMSO (PISA); higher = thermal stabilisation; K562 cells, 10 uM, 30 min; active = over 0.2 and 3.5 SD of the protein, either way, in both replicates (recomputed)
# IRAK-1-4 Inhibitor I = compound: C1COCCN1CCN2C3=CC=CC=C3N=C2NC(=O)C4=CC(=CC=C4)[N+](=O)[O-] [IRAK-1-4 Inhibitor I]
# Summary of the method: (§1)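 Soluble protein was defined as the supernatant after 21,000xg for 90 min. It came from K562 cells at 2×10^6 cells/mL given 10 μM compound for 30 min, heated in aliquots for 3 min across 48°C-58°C, pooled, and extracted in PBS with 0.5% NP-40 at 4°C, and was quantified by TMTpro 16plex LC-MS/MS with equalised channel sums. Thermal stability against control samples, from duplicates, is reported as log2 fold change.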
# [1] = compound: CC(=O)c1cnc2ccc(-c3cc(Cl)c(O)c(Cl)c3)nc2c1N[C@H]1CC[C@H](CN(C)C)CC1
# Summary of the method: as §1
# ralimetinib = compound: CC(C)(C)Cn1c(N)nc2ccc(-c3[nH]c(C(C)(C)C)nc3-c3ccc(F)cc3)nc21 [ralimetinib]
# Summary of the method: as §1
# [2] = compound: CC(C)(O)CC(=O)NCCn1ccc2ncnc(Nc3ccc(Oc4cccc(C(F)(F)F)c4)c(Cl)c3)c21
# Summary of the method: as §1
# [3] = compound: CC(C)C[C@@H](C=O)NC(=O)[C@H](CC(C)C)NC(=O)[C@H](CC(C)C)NC(=O)OCc1ccccc1
# Summary of the method: as §1
# pinometostat = compound: CC(C)N(C[C@H]1O[C@@H](n2cnc3c(N)ncnc32)[C@H](O)[C@@H]1O)[C@H]1C[C@@H](CCc2nc3cc(C(C)(C)C)ccc3[nH]2)C1 [pinometostat]
# Summary of the method: as §1
# [4] = compound: CC1=C(C=C(C=C1)NC(=O)C2=CC(=CC=C2)C(C)(C)C#N)NC3=CC4=C(C=C3)N=CN(C4=O)C
# Summary of the method: as §1
# [5] = compound: CC1=C(C=C(C=C1)NC(=O)C2=CC(=CC=C2)N(C)C)NC(=O)C3=CC=C(C=C3)O
# Summary of the method: as §1
# [6] = compound: CC1=CC=C(C=C1)SC2=C3C=C(SC3=CN=C2)C(=O)N
# Summary of the method: as §1
# [7] = compound: CC1=NC(=CC=C1)C2=C(N=C(N2)C(C)(C)C)C3=CC4=NC=CN=C4C=C3
# Summary of the method: as §1
# Nexturastat A = compound: CCCCN(Cc1ccc(C(=O)NO)cc1)C(=O)Nc1ccccc1 [Nexturastat A]
# Summary of the method: as §1
# [8] = compound: CCCS(=O)(=O)Nc1ccc(F)c(C(=O)c2c[nH]c3ncc(Cl)cc23)c1F
# Summary of the method: as §1
# [9] = compound: CCCc1cc(C)[nH]c(=O)c1CNC(=O)c1cc(-c2ccnc(N3CCN(C)CC3)c2)cc2c1cnn2C(C)C
# Summary of the method: as §1
# [10] = compound: CC1=C(C2=C(C=C1)C(=O)C3=CC=CC=C3N2CCCN)C
# Summary of the method: as §1
# vemurafenib = compound: CCCS(=O)(=O)Nc1ccc(F)c(C(=O)c2c[nH]c3ncc(-c4ccc(Cl)cc4)cc23)c1F [vemurafenib]
# Summary of the method: as §1
# [11] = compound: CC(C)C1=C2N=C(C=C(N2N=C1)NCC3=CC=CC=C3)NCCCCCCN
# Summary of the method: as §1
# givinostat = compound: CCN(CC)Cc1ccc2cc(COC(=O)Nc3ccc(C(=O)NO)cc3)ccc2c1 [givinostat]
# Summary of the method: as §1
# ibrutinib = compound: C=CC(=O)N1CCC[C@@H](n2nc(-c3ccc(Oc4ccccc4)cc3)c3c(N)ncnc32)C1 [ibrutinib]
# Summary of the method: as §1
# barasertib = compound: CCN(CCCOc1ccc2c(Nc3cc(CC(=O)Nc4cccc(F)c4)[nH]n3)ncnc2c1)CCOP(=O)(O)O [barasertib]
# Summary of the method: as §1
# [12] = compound: CC1=C(C(CC(=O)N1)C2=CC=C(C=C2)C(F)(F)F)C(=O)NC3=C(C=C4C(=C3)C=NN4)F
# Summary of the method: as §1
target,measurement,setting,value
GIT1 isoform 3 (UniProt Q9Y2X7),log2 fold change,IRAK-1-4 Inhibitor I,inactive: -0.113
same,log2 fold change,[1],inactive: -0.083
same,log2 fold change,ralimetinib,inactive: -0.161
same,log2 fold change,[2],inactive: -0.218
same,log2 fold change,[3],inactive: 0.034
same,log2 fold change,pinometostat,inactive: 0.204
same,log2 fold change,[4],inactive: 0.052
same,log2 fold change,[5],inactive: 0.023
same,log2 fold change,[6],inactive: -0.024
same,log2 fold change,[7],inactive: -0.158
same,log2 fold change,Nexturastat A,inactive: 0.14
same,log2 fold change,[8],inactive: -0.032
same,log2 fold change,[9],inactive: 0.081
GIGYF1 (UniProt O75420),log2 fold change,IRAK-1-4 Inhibitor I,inactive: -0.028
same,log2 fold change,ralimetinib,inactive: 0.03
same,log2 fold change,[2],inactive: -0.117
same,log2 fold change,[3],inactive: 0.022
same,log2 fold change,pinometostat,inactive: 0.091
same,log2 fold change,[4],inactive: -0.103
same,log2 fold change,[5],inactive: 0.036
same,log2 fold change,[6],inactive: -0.002
same,log2 fold change,[7],inactive: 0.05
same,log2 fold change,Nexturastat A,inactive: 0.128
same,log2 fold change,[8],inactive: -0.166
GPT2 (UniProt Q8TD30),log2 fold change,[1],inactive: -0.18
same,log2 fold change,ralimetinib,inactive: -0.019
same,log2 fold change,[3],inactive: 0.079
same,log2 fold change,[10],inactive: -0.027
same,log2 fold change,[5],inactive: -0.057
same,log2 fold change,[6],inactive: 0.07
same,log2 fold change,vemurafenib,inactive: 0.137
same,log2 fold change,[8],inactive: -0.038
same,log2 fold change,[9],inactive: 0.327
GOLGA1 (UniProt Q92805),log2 fold change,[1],inactive: -0.032
same,log2 fold change,ralimetinib,inactive: -0.044
same,log2 fold change,[11],inactive: -0.045
same,log2 fold change,[3],inactive: 0.054
same,log2 fold change,[5],inactive: -0.072
same,log2 fold change,[6],inactive: 0.067
same,log2 fold change,vemurafenib,inactive: 0.289
same,log2 fold change,[8],inactive: -0.065
same,log2 fold change,givinostat,inactive: 0.04
GLS2 (UniProt Q9UI32),log2 fold change,[1],inactive: -0.148
GPNMB (UniProt Q14956),log2 fold change,[2],inactive: 0
same,log2 fold change,[11],inactive: 0.108
same,log2 fold change,Nexturastat A,active: 1.64
same,log2 fold change,givinostat,inactive: 0.671
GJA1 (UniProt P17302),log2 fold change,ibrutinib,inactive: 0.103
same,log2 fold change,barasertib,inactive: 0.078
GNMT (UniProt Q14749),log2 fold change,ibrutinib,inactive: 0.107
same,log2 fold change,[1],inactive: -0.069
same,log2 fold change,ralimetinib,inactive: -0.044
same,log2 fold change,[11],inactive: 0.032
same,log2 fold change,[3],inactive: -0.055
same,log2 fold change,[12],inactive: -0.167
same,log2 fold change,[10],inactive: -0.127
same,log2 fold change,[4],inactive: -0.024
same,log2 fold change,[5],inactive: -0.047
same,log2 fold change,[6],inactive: 0.107
same,log2 fold change,vemurafenib,inactive: 0.144
same,log2 fold change,[8],inactive: -0.109
same,log2 fold change,[9],inactive: -0.037
same,log2 fold change,givinostat,inactive: -0.191
same,log2 fold change,barasertib,inactive: -0.044
GLTP (UniProt Q9NZD2),log2 fold change,ibrutinib,inactive: 0.15
same,log2 fold change,[1],inactive: 0.098
same,log2 fold change,ralimetinib,inactive: 0.012
same,log2 fold change,[11],inactive: 0.081
same,log2 fold change,[3],inactive: -0.054
same,log2 fold change,[12],inactive: -0.017
same,log2 fold change,[10],inactive: 0.096
same,log2 fold change,[4],inactive: 0.135
same,log2 fold change,[5],inactive: -0.064
same,log2 fold change,[6],inactive: 0.037
same,log2 fold change,vemurafenib,inactive: 0.031
same,log2 fold change,[8],inactive: -0.062
same,log2 fold change,[9],inactive: -0.052
same,log2 fold change,givinostat,inactive: -0.04
same,log2 fold change,barasertib,inactive: 0.099
GOLPH3L (UniProt Q9H4A5),log2 fold change,IRAK-1-4 Inhibitor I,inactive: -0.294
same,log2 fold change,[1],inactive: 0.035
same,log2 fold change,[2],inactive: 0.013
same,log2 fold change,pinometostat,inactive: 0.273
same,log2 fold change,[4],inactive: -0.126
same,log2 fold change,[7],inactive: -0.196
same,log2 fold change,Nexturastat A,inactive: 0.252
same,log2 fold change,vemurafenib,inactive: 0.1
same,log2 fold change,[9],inactive: 0.036
GPR180 (UniProt Q86V85),log2 fold change,ibrutinib,inactive: -0.534
same,log2 fold change,[1],inactive: -0.134
same,log2 fold change,[2],inactive: -0.07
same,log2 fold change,[10],inactive: 0.113
same,log2 fold change,[4],inactive: 0.033
same,log2 fold change,[6],inactive: -0.035
same,log2 fold change,Nexturastat A,inactive: -0.031
same,log2 fold change,vemurafenib,inactive: 0.139
same,log2 fold change,[8],inactive: 0.067
same,log2 fold change,[9],inactive: -0.147
same,log2 fold change,barasertib,inactive: 0.407
GSDME (UniProt O60443),log2 fold change,[2],inactive: 0.046
same,log2 fold change,[11],inactive: -0.187
same,log2 fold change,Nexturastat A,inactive: 0.054
same,log2 fold change,givinostat,inactive: -0.147
GSE1 (UniProt Q14687),log2 fold change,ibrutinib,inactive: 0.057
same,log2 fold change,ralimetinib,inactive: -0.065
same,log2 fold change,[3],inactive: 0.003
same,log2 fold change,[5],inactive: 0.071
same,log2 fold change,vemurafenib,inactive: -0.13
same,log2 fold change,barasertib,inactive: 0.232
GLMP (UniProt Q8WWB7),log2 fold change,IRAK-1-4 Inhibitor I,inactive: 0.062
same,log2 fold change,[1],inactive: -0.037
same,log2 fold change,ralimetinib,inactive: -0.081
same,log2 fold change,[2],inactive: -0.03
same,log2 fold change,[3],inactive: 0.131
same,log2 fold change,pinometostat,inactive: -0.104
same,log2 fold change,[12],inactive: 0.005
same,log2 fold change,[10],inactive: 0.025
same,log2 fold change,[4],inactive: -0.046
same,log2 fold change,[5],inactive: 0.022
same,log2 fold change,[6],inactive: -0.03
same,log2 fold change,[7],inactive: -0.124
same,log2 fold change,Nexturastat A,inactive: 0.053
same,log2 fold change,vemurafenib,inactive: 0
same,log2 fold change,[8],inactive: 0.033
same,log2 fold change,[9],inactive: 0.011
GINM1 (UniProt Q9NU53),log2 fold change,ibrutinib,inactive: 0.127
same,log2 fold change,[2],inactive: 0.007
same,log2 fold change,[11],inactive: 0.09
same,log2 fold change,[12],inactive: 0.165
same,log2 fold change,[4],inactive: -0.059
same,log2 fold change,[6],inactive: -0.002
same,log2 fold change,Nexturastat A,inactive: 0.103
same,log2 fold change,[8],inactive: 0.029
same,log2 fold change,[9],inactive: -0.079
same,log2 fold change,givinostat,inactive: 0.168
same,log2 fold change,barasertib,inactive: -0.085
GRK6 isoform 2 (UniProt P43250),log2 fold change,vemurafenib,inactive: -0.043
GPX3 (UniProt P22352),log2 fold change,ibrutinib,inactive: 0.022
same,log2 fold change,[1],inactive: -0.128
same,log2 fold change,ralimetinib,inactive: -0.207
same,log2 fold change,[2],inactive: 0.049
same,log2 fold change,[11],inactive: 0.113
same,log2 fold change,[3],inactive: 0.076
same,log2 fold change,[10],inactive: -0.08
same,log2 fold change,[5],inactive: -0.021
same,log2 fold change,[6],inactive: 0.066
same,log2 fold change,Nexturastat A,inactive: 0.195
same,log2 fold change,vemurafenib,inactive: 0.013
same,log2 fold change,[8],inactive: -0.099
same,log2 fold change,givinostat,inactive: -0.081
same,log2 fold change,barasertib,inactive: -0.081
GPR108 (UniProt Q9NPR9),log2 fold change,ibrutinib,inactive: 0.035
same,log2 fold change,[1],inactive: -0.048
same,log2 fold change,ralimetinib,inactive: 0.082
same,log2 fold change,[2],inactive: 0.005
same,log2 fold change,[11],inactive: -0.065
same,log2 fold change,[3],inactive: 0.125
same,log2 fold change,[12],inactive: -0.015
same,log2 fold change,[10],inactive: 0.012
same,log2 fold change,[4],inactive: -0.026
same,log2 fold change,[5],inactive: -0.011
same,log2 fold change,[6],inactive: 0.055
same,log2 fold change,Nexturastat A,inactive: 0.083
same,log2 fold change,vemurafenib,inactive: -0.056
same,log2 fold change,[8],inactive: -0.041
same,log2 fold change,[9],inactive: -0.113
same,log2 fold change,givinostat,inactive: 0.028
same,log2 fold change,barasertib,inactive: -0.016
GPSM3 (UniProt Q9Y4H4),log2 fold change,[1],inactive: -0.029
same,log2 fold change,[12],inactive: -0.062
same,log2 fold change,[4],inactive: -0.206
same,log2 fold change,[6],inactive: 0.107
same,log2 fold change,vemurafenib,inactive: 0.095
same,log2 fold change,[8],inactive: -0.01
same,log2 fold change,[9],inactive: -0.178

# Part of the list above in another layout:
target | measurement | setting | value
GLMP (UniProt Q8WWB7) | log2 fold change | [6] | inactive: -0.03
same | log2 fold change | [7] | inactive: -0.124
same | log2 fold change | Nexturastat A | inactive: 0.053
same | log2 fold change | vemurafenib | inactive: 0
same | log2 fold change | [8] | inactive: 0.033

# 2 records drawn at random from those above, as already listed:
target,measurement,setting,value
GNMT (UniProt Q14749),log2 fold change,barasertib,inactive: -0.044
GIT1 isoform 3 (UniProt Q9Y2X7),log2 fold change,[5],inactive: 0.023
